Here are results for six molecules from paper PMC11377309.

Sequences of proteins named here, by UniProt entry; tags and fusion partners are left off. Residues count along the entry.
UniProt Q5KU26: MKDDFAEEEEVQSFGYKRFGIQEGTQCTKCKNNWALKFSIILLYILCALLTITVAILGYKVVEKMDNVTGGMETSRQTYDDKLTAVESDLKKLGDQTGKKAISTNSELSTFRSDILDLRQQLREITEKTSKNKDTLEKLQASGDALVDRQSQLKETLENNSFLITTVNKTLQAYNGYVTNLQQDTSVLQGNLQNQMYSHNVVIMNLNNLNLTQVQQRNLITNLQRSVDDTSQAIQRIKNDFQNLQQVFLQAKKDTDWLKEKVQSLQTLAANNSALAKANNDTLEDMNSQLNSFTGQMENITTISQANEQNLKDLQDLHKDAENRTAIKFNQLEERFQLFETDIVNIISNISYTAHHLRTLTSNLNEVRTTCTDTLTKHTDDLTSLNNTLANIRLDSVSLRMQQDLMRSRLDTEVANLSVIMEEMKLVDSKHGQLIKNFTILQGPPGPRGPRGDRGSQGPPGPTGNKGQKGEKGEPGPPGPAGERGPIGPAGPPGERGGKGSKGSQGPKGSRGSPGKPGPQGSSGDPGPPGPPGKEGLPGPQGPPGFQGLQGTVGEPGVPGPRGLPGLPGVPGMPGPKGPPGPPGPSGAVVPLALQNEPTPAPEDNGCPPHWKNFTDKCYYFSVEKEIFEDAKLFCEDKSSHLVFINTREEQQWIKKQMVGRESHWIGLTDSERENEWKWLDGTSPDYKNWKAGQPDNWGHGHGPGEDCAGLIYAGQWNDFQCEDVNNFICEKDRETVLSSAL
UniProt Q9UKJ1, residues 20-303: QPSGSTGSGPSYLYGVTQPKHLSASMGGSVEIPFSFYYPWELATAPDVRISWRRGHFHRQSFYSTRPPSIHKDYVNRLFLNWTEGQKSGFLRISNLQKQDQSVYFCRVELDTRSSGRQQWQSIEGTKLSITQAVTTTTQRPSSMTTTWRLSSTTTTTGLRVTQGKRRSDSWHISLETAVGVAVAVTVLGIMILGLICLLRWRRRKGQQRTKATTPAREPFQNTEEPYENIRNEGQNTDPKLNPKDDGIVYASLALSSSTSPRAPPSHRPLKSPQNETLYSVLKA
UniProt Q9UKJ0, residues 20-227: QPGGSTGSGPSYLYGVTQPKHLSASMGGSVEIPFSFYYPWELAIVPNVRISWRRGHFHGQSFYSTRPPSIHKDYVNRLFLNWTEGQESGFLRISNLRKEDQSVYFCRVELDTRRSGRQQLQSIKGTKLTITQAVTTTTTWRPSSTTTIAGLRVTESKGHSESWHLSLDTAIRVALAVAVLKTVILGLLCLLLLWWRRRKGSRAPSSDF

Experiment [1] has as its target COLEC12 (human) (UniProt Q5KU26). In words: Cell-Int (cell-cell conjugates counted by flow cytometry); two batches of 293-F cells, each transfected with one membrane protein and GFP or RFP, mixed in FreeStyle 293 Expression Medium, 1-2 h at 25°C (Juno/Izumo1 also at 4°C and 37°C and from 10 min to 3 h); percent GFP+ RFP+ double-positive events. Background: Flow cytometry measures light scatter and fluorescence of single cells or particles in a stream.

Experiment [2] deals with T1, NPDC-1 (human) (UniProt Q9NQX5).
T1 sequence: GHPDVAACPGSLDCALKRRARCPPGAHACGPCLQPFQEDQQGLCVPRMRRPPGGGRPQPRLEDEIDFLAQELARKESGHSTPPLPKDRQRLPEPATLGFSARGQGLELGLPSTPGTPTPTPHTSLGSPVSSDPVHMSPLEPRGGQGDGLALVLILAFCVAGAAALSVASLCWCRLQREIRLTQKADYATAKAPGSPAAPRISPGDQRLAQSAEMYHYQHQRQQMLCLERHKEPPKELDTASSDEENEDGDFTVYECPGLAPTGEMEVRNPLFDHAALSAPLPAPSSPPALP
The experiment is described as above.

Experiment [3] concerns the target T2, MFSD2 (UniProt Q8NA29).
T2 sequence: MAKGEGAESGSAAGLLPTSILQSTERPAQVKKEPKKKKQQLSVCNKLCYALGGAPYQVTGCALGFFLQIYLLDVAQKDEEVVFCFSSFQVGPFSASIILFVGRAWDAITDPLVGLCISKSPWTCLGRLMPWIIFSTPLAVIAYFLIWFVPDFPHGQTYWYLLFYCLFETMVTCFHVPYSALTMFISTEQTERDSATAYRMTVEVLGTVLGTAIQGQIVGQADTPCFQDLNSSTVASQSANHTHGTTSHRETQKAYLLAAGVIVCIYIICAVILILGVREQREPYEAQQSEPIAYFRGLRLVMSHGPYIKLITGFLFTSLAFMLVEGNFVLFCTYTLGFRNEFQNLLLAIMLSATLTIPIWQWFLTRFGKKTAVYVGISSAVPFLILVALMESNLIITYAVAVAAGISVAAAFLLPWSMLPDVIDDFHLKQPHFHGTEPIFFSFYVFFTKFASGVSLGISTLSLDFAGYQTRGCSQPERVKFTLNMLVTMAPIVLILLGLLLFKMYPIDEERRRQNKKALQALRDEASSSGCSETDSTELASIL
In words: Cell-Int (cell-cell conjugates counted by flow cytometry).

Experiment [4] has as its target T3, CD200R1 (human) (UniProt Q8TD46).
T3 sequence: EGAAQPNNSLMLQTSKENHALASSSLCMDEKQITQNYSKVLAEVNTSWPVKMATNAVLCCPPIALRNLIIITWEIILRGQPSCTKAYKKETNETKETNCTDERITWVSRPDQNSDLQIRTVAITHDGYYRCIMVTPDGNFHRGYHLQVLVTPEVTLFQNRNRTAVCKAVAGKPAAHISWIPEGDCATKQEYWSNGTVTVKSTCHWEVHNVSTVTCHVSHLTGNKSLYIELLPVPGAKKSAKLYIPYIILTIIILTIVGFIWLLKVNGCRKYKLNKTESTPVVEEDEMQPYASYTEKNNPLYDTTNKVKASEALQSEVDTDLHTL
In words: Cell-Int (cell-cell conjugates counted by flow cytometry); two batches of 293-F cells, each transfected with one membrane protein and GFP or RFP, mixed in FreeStyle 293 Expression Medium, 1-2 h at 25°C (Juno/Izumo1 also at 4°C and 37°C and from 10 min to 3 h); percent GFP+ RFP+ double-positive events.

The target of experiment [5] is T4, CD200R1L (human) (UniProt Q6Q8B3).
T4 sequence: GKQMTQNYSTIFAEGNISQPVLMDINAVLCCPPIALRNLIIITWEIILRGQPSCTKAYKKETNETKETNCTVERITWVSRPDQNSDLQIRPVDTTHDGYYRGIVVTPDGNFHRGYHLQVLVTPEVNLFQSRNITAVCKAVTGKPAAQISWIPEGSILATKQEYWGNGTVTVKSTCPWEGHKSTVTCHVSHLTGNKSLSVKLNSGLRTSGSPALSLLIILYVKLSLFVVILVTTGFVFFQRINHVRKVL
The experiment is described as above.

Experiment [6] concerns the target T5, Ly-6E (mouse) (mouse) (UniProt Q64253).
T5 sequence: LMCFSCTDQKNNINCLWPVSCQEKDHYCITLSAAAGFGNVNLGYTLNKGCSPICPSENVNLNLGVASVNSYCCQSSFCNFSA
In words: Cell-Int (cell-cell conjugates counted by flow cytometry).

For experiment [7], the target named is T6, endogenous Ly-6E of 293T cells (human (endogenous in 293T)) (UniProt Q16553).
T6 sequence: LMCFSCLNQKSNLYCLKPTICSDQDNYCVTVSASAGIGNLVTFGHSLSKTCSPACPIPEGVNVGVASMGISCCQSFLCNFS
The description is as above.

Experiment [8] deals with T7, Izumo1 (mouse) (UniProt Q9D9J7).
T7 sequence: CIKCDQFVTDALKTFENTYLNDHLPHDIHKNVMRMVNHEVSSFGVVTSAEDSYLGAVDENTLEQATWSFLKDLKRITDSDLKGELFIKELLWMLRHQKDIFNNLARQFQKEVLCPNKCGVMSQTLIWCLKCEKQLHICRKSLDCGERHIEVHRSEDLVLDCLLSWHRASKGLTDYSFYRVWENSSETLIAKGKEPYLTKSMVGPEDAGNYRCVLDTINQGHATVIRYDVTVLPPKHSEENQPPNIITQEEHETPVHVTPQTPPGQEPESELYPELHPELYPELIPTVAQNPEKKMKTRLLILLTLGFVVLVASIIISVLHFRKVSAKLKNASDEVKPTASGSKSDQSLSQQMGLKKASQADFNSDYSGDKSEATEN
In words: Cell-Int (cell-cell conjugates counted by flow cytometry); two batches of 293-F cells, each transfected with one membrane protein and GFP or RFP, mixed in FreeStyle 293 Expression Medium, 1-2 h at 25°C (Juno/Izumo1 also at 4°C and 37°C and from 10 min to 3 h); percent GFP+ RFP+ double-positive events.

No constants are given. Whether binding was seen depends on the method and setting. Some binding calls cover weakened binding; strength is not graded here.

Regarding “PILRα (from UniProt Q9UKJ1 20-303) (receptor)”, the binding entry in experiment [1] and in experiment [2] was “binds” in each case.

For “PILRβ (from UniProt Q9UKJ0 20-227) (receptor)”, the binding entry in experiment [1] and in experiment [2] was “no binding” in each case.

B1: Syncytin-2 (protein, UniProt P60508 16-538)
chain: AYRHPDFPLLEKAQQLLQSTGSPYSTNCWLCTSSSTETPGTAYPASPREWTSIEAELHISYRWDPNLKGLMRPANSLLSTVKQDFPDIRQKPPIFGPIFTNINLMGIAPICVMAKRKNGTNVGTLPSTVCNVTFTVDSNQQTYQTYTHNQFRHQPRFPKPPNITFPQGTLLDKSSRFCQGRPSSCSTRNFWFRPADYNQCLQISNLSSTAEWVLLDQTRNSLFWENKTKGANQSQTPCVQVLAGMTIATSYLGISAVSEFFGTSLTPLFHFHISTCLKTQGAFYICGQSIHQCLPSNWTGTCTIGYVTPDIFIAPGNLSLPIPIYGNSPLPRVRRAIHFIPLLAGLGILAGTGTGIAGITKASLTYSQLSKEIANNIDTMAKALTTMQEQIDSLAAVVLQNRRGLDMLTAAQGGICLALDEKCCFWVNQSGKVQDNIRQLLNQASSLRERATQGWLNWEGTWKWFSWVLPLTGPLVSLLLLLLFGPCLLNLITQFVSSRLQAIKLQTNLSAGRHPRNIQESPF
For the molecule B1, in experiment [3], the binding result is given as “binds”.

B2: CD200 (ligand, UniProt P41217 31-278)
chain: QVQVVTQDEREQLYTPASLKCSLQNAQEALIVTWQKKKAVSPENMVTFSENHGVVIQPAYKDKINITQLGLQNSTITFWNITLEDEGCYMCLFNTFGFGKISGTACLTVYVQPIVSLHYKFSEDHLNITCSATARPAPMVFWKVPRSGIENSTVTLSHPNGTTSVTSILHIKDPKNQVGKEVICQVLHLGTVTDFKQTVNKGYWFSVPLLLSIVSLVILLVLISILLYWKRHRNQDRGELSQGVQKMT
As for B2, the results for the binding result in experiment [4] and in experiment [5] were “binds” and “no binding”, respectively.

B3: Syncytin-A (protein, UniProt Q5G5D5 18-617)
chain: YSDSWMPLVNLTQHLLQEANSSFSSNCWVCLSIQTQRSLAMPAPLRTWTETPMKLRIMYSARTLSGPYPITDLERRLQNFQPLTPHSSFVNPDQRAIAFLQITSVTGILPILSRITSVRYPDDHVYESAQRPIWGSLSTQTILTSQAPLCISRFFKNSNHATFVGKLPASLCNHTFQLSPSANHQSIDLSSSYAFAPLMAMPGSKWRNPLRFSGPPSLNSGMPHYSCPIDDIHCHTYPTTPWRSCPSFPASTCYNLTLFEPDNSSHPITLSVDTTYFKIKLQGHKDPYPLFQYQPLMGAALSGQYSIWEYEPTVKKNGGITPNIFSHLVSLTYSFCLNSSGVFFLCGNSTYVCLPANWSGVCTLVFQYPDIELLPNNQTISVPLFATVPSSVPASRRKRALPLLPLLAGLGIASALGLGIAGITTSTVYFQQLSKALSDSLDEIATSIISLQDQIDSLAGVVLQNRRALDLIVAERGGTCLFLQEECCFYINQSGVVRHAARKLRERASELGTSSSSWIQWLGLGPWLPSWLTSLMAPILFILVLLVFRPCLLNCLTHSVSRRMSSFIHTTTEGHVDKILLLRESQYKRLPQEPPEEDAV
Take B3: the binding entry in experiment [6] and in experiment [7] was “binds” each time.

B4: Juno (protein, UniProt Q9EQF4 20-222)
chain: GDKLLSVCMNSKRHKQEPGPEDELYQECRPWEDNACCTRSTSWEAHLEEPLLFNFSMMHCGLLTPACRKHFIQAICFHECSPNLGPWIQPVVPNGQEEQRVWGVPLCQEDCEDWWRACHSSLTCKSNWLHGWDWSEEKKHCPAHEPCLPFSYHFPTPDDLCEKIWNNTFKASPERRNSGRCLQKWFEPTLSNPNVEVALHFAG
For B4, in experiment [8], the binding result is given as “binds”.
